The numbers were not newly measured in US20240108043A1, “NONNUTRITIVE SWEETENER COMPOSITIONS, METHODS OF MANUFACTURE AND USES THEREOF” (priority 2022, published 2024), which cites them from elsewhere.

For this series the following is noted: peer-reviewed trials.

For `O=C(CO)[C@H](O)[C@H](O)[C@H](O)CO` [allulose, D-ribo-2-hexulose], the Calorie content is 0.1 kcal/g.
For the molecule `OC[C@@H](O)[C@@H](O)CO` [erythritol, (2R,3S)-Butan-1,2,3,4-tetrol], the Calorie content is on record as 0.2 kcal/gram.
